Reference: paper PMC10163288
The other results are listed elsewhere or left out.

B1: il2ra_site2_3nfp_sap_15_mot_HHH_b2_08110_af2_000000162_0001_23_39_H_._17723695ccae110160e5b234edaa95c1_0001_af2_0001_0000100014_0000001_0_0001 (protein)
chain: SSSSDVEEEVRRLLEEAEELRKQGNPEEVRRLVAEAAHLAFENNDHEAFALIADVFYKLAKSSSS
B2: il2ra_site1_3nfp_sap_19_mot_HHH_b1_01231_af2_000000170_0001_1_16_H_._HHH_b1_05450_af2_0001_0000100012_0000001_0_0001 (protein)
chain: SADEYMVELLKKDGFPPEKIVEQLVEAARRVYNIPPEEAEKWLKKRLEELGDPLAEVVEELAEEK
B3: il2ra_site2_3nfp_sap_19_mot_HHH_b1_04960_000000149_0001_23_39_H_._HHH_b2_01436_0001_0000600058_0000001_0_0001_af2pred_0001_1_af2pred_swapped (protein)
chain: SSSSSDEELRLIEKLLREAEEEGDEELIRHLAAALASLAFELNDEERLKEARRILAEIANSSSSS
B4: il2ra_site1_2b5i_sap_7_mot_HHH_b1_08075_000000186_0001_43_57_H_._HHH_b1_06101_0001_0000700022_0000001_0_0001_af2pred_dldesign_0_af2pred (protein)
chain: SSSSSRRETLLEVERLVKEADKLEDKEEARKVLERALELARAGRDPVAARIVEERLEEISSSSSS
B5: il2ra_site2_3nfp_sap_18_mot_HHH_b2_05281_000000198_0001_39_56_H_._738ccc93aada9afe30a0d8950425dc90_0001_1_0001_0000300030_0000001_0_0001_af2pred_0001_af2pred (protein)
chain: DARKRIRELAEELGIPPRDIMLIIALILLLEQKGFSPEEIEKILEERAKKRGDPALKRVLEELRK
B6: il2ra_site2_2erj_sap_16_mot_4b0744c440632e7b239d8b54ed7c44c2_0001_af2_000000182_0001_16_31_H_._HHH_b1_03906_0001_0000500049_0000001_0_0001 (protein)
chain: SSSSEEEELERLLEEIKELLEEGNLEEALRLLWEVMRLAFENNDWEVSRRVWRLWELLRELESSS
B7: il2ra_site2_3nfp_normal_mot_HHH_b1_03376_000000004_0001_41_55_H_._HHH_b1_07054_0002_0000100008_0000001_0_af2pred_0001_1_af2pred_swapped (protein)
chain: SSSSDVEERIEQLLEKAERILEEHKDPEEAHRIVAEAARLAWENNDQEAFSRVAELYLKIDSSSS
B8: il2ra_site2_2erj_sap_25_mot_66c2fca85847babee3b8944584cfd08f_0001_1_000000149_0001_16_30_H_._HHH_b1_00115_0001_0000300028_0000001_0_0001 (protein)
chain: SSSSNEELHELYKLAVELLRLTAEGDREEFEKLWEEAKELAERLDSENVEEILEFLRRRVSSSSS
B9: il2ra_site2_3nfp_sap_29_mot_HHH_b2_01508_000000034_0001_1_17_H_._HHH_b2_05744_0001_0000100007_0000001_0_0001 (protein)
chain: SSSSDERMLRLALEALEALARNGDDEMFEKAEEYLRAAIELYGDEEARELLEELVREFREKSSSS
B10: il2ra_site2_2erj_normal_mot_HHH_b1_05749_af2_000000086_0001_23_39_H_._HHH_b1_03988_af2_0001_0000100001_0000001_0 (protein)
chain: SSSSNEELRRLYELAVRILHLISEGDEERAQELIEELKELAERLDNLAVKELVEHLEELINSSSS

target: il2ra, P01589; assay: yeast display titration

Apparent Kd, inactive:
B1 no binding seen
B2 no binding seen
B3 no binding seen
B4 no binding seen
B5 no binding seen
B6 no binding seen
B7 no binding seen
B8 no binding seen
B9 no binding seen
B10 no binding seen

Fetched one by one from above (2):
Apparent Kd, inactive:
B6 no binding seen
B5 no binding seen
